The supplement of paper PMC10849652
This is one part of the list.

The chains behind the UniProt entries cited, without tags or fusion partners. Where a name states a change or a piece, a line headed by the entry shows the natural chain unless it says otherwise.
UniProt Q12981: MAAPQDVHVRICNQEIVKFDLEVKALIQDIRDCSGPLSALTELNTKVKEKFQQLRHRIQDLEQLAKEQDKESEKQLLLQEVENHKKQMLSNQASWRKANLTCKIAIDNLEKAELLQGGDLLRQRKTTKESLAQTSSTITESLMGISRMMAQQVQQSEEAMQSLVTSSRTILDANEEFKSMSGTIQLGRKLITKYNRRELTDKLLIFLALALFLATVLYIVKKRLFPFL
UniProt Q15059, whole entry, looked up: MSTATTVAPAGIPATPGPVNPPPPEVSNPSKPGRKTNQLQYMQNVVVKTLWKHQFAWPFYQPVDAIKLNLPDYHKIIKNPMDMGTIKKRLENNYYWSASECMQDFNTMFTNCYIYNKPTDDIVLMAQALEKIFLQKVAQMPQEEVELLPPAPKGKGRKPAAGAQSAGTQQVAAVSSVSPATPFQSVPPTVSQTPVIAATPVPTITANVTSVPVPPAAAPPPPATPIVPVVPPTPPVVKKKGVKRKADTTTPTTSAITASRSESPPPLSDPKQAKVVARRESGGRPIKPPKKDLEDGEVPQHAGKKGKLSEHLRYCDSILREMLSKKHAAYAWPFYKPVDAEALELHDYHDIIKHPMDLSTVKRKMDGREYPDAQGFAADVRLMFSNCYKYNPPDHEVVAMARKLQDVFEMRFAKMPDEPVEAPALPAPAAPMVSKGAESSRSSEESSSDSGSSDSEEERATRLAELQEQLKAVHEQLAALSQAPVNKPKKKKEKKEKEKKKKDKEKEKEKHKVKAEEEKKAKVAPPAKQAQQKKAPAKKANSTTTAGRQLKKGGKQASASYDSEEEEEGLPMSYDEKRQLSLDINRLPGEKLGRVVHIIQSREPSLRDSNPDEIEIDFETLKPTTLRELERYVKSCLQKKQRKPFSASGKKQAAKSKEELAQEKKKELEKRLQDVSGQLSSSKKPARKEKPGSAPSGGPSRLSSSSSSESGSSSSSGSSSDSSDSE
UniProt P15291: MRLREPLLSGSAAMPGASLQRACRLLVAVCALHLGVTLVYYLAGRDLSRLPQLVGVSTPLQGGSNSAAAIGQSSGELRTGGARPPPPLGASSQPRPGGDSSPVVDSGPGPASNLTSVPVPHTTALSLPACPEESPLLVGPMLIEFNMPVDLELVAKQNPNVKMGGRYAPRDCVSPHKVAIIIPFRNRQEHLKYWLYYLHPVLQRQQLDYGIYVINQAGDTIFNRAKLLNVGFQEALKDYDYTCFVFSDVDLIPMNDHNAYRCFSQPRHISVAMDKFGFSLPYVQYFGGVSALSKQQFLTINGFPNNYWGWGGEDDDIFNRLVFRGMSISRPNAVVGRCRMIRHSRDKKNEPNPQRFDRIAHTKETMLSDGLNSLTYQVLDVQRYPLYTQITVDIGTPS

Experiments:
Assay in all cases: log2 fold change, soluble protein after heating vs DMSO (PISA); higher = thermal stabilisation; K562 lysate, 10 uM; active = over 0.2 and 3.5 SD of the protein, either way, in both replicates (recomputed)
[1] = compound: CCCS(=O)(=O)Nc1ccc(F)c(C(=O)c2c[nH]c3ncc(-c4ccc(Cl)cc4)cc23)c1F [vemurafenib]
Procedure, shortened: (§1)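 K562 pellets were dounce-homogenised in PBS pH 7.4 with 1 mM MgCl2, and the crude extract at 1 mg/mL protein was treated with 10 μM compound for 30 min. Aliquots were heated for 3 min across 48°C-58°C, pooled, and brought to 0.5% NP-40 at 4°C; soluble protein was the supernatant after 21,000xg for 90 min. Soluble protein was quantified by TMTpro 16plex LC-MS/MS with channel sums equalised, and reported as log2 fold change in thermal stability against DMSO controls, with values from duplicates.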

[2] = compound: CCCS(=O)(=O)Nc1ccc(F)c(C(=O)c2c[nH]c3ncc(Cl)cc23)c1F
Procedure, shortened: as §1

[3] = compound: CCN(CCCOc1ccc2c(Nc3cc(CC(=O)Nc4cccc(F)c4)[nH]n3)ncnc2c1)CCOP(=O)(O)O [barasertib]
Procedure, shortened: as §1

[4] = compound: CC[C@@H]1C(=O)N(C)c2cnc(Nc3ccc(C(=O)NC4CCN(C)CC4)cc3OC)nc2N1C1CCCC1
Procedure, shortened: as §1

[5] = compound: CC[C@@H]1C(=O)N(C)c2cnc(Nc3ccc(C(=O)N[C@H]4CC[C@H](N5CCN(CC6CC6)CC5)CC4)cc3OC)nc2N1C(C)C [volasertib]
Procedure, shortened: as §1

[6] = compound: CCn1c(C(=O)N(C2CC2)C2CC2)cc2c3c(ncn3C)c(Nc3cc(C)n(C)n3)nc21
Procedure, shortened: as §1

[7] = compound: CCn1cc(-c2ccnc3[nH]c(-c4cccc(CN(C)C)c4)cc23)c(-c2ccc(NC(=O)N(C)C)cc2)n1
Procedure, shortened: as §1

[8] = compound: CN1CCC(CNc2ccc3ncc(-c4cccc(OC(F)(F)F)c4)n3n2)CC1
Procedure, shortened: as §1

[9] = compound: CN1CCN(CCOc2cc(OC3CCOCC3)c3c(Nc4c(Cl)ccc5c4OCO5)ncnc3c2)CC1 [saracatinib]
Procedure, shortened: as §1

[10] = compound: CN1CCN(c2nc(C3=C(c4c[nH]c5ccccc45)C(=O)NC3=O)c3ccccc3n2)CC1 [sotrastaurin]
Procedure, shortened: as §1

[11] = compound: CN1CC[C@H](c2c(O)cc(O)c3c(=O)cc(-c4ccccc4Cl)oc23)[C@H](O)C1 [alvocidib]
Procedure, shortened: as §1

[12] = compound: CN1CCc2c(c3ccccc3n2Cc2ccc(C(=O)NO)cc2)C1 [Tubastatin A]
Procedure, shortened: as §1

[13] = compound: CNC(=O)C1=CC=CC=C1NC2=NC(=NC=C2Cl)NC3=C(C=C(C=C3)N4CCOCC4)OC
Procedure, shortened: as §1

[14] = compound: CNC(=O)c1ccc(Nc2ncc(C(F)(F)F)c(NCc3nccnc3N(C)S(C)(=O)=O)n2)cc1 [defactinib]
Procedure, shortened: as §1

[15] = compound: CNc1nc(-c2ccc3c(N)n[nH]c3c2)cc(N2C[C@@H](C(=O)NC3CCCCC3)CC[C@H]2C)n1
Procedure, shortened: as §1

[16] = compound: COC(=O)N[C@@H](C)CNc1nccc(-c2cn(C(C)C)nc2-c2cc(Cl)cc(NS(C)(=O)=O)c2F)n1 [encorafenib]
Procedure, shortened: as §1

[17] = compound: COC(=O)[C@H](CCSC)NC(=O)C1=C(C=C(C=C1)NC[C@H](CS)N)C2=CC=CC=C2
Procedure, shortened: as §1

[18] = compound: COc1cc(Nc2ncc3c(n2)-c2ccc(Cl)cc2C(c2c(F)cccc2OC)=NC3)ccc1C(=O)O [alisertib]
Procedure, shortened: as §1

[19] = compound: COc1cc2nc(-c3cc(F)ccc3O)nc(N[C@@H]3CNC[C@H]3C(C)(C)O)c2cc1OC
Procedure, shortened: as §1

[20] = compound: COc1cc2ncnc(Nc3ccc(F)c(Cl)c3)c2cc1OCCCN1CCOCC1 [gefitinib]
Procedure, shortened: as §1

Measured: log2 fold change

BNIP1 (UniProt Q12981)
inactive: [1] 0.024 | [2] 0 | [3] 0.057 | [4] -0.032 | [5] -0.054 | [6] -0.013 | [8] -0.204 | [9] 0.032 | [10] 0.006 | [11] 0.231 | [12] -0.045 | [13] 0.055 | [14] 0 | [15] -0.014 | [16] 0.095 | [17] -0.037 | [18] 0.004 | [19] 0.004 | [20] -0.018
active: [7] 0.287

BRD3 (UniProt Q15059)
active: [4] 0.451
inactive: [1] -0.046 | [2] 0.038 | [3] -0.087 | [5] 0.263 | [7] -0.143 | [8] 0.188 | [9] 0.008 | [10] -0.082 | [11] -0.059 | [13] 0.105 | [14] 0.017 | [15] 0.09 | [16] -0.016 | [17] 0.018 | [18] -0.003 | [19] -0.015 | [20] -0.15

B4GALT1 (UniProt P15291)
inactive: [1] -0.025 | [2] 0 | [3] 0.002 | [4] -0.031 | [5] -0.036 | [6] -0.082 | [7] 0.021 | [8] -0.022 | [10] -0.053 | [11] 0.018 | [12] 0.053 | [13] -0.038 | [14] 0.009 | [16] -0.132 | [17] 0.067 | [18] -0.059 | [19] 0.014 | [20] -0.039
